Paper PMC11651612
No constants are given. Whether binding was seen depends on the method and setting. Binding seen in cells or lysates may run through a third protein. Here binding means that the protein was enriched with, or labelled near, the bait; the list need not be complete.

B1: TPR_REGION domain-containing protein (protein, UniProt J9VGX5 1-1148)
chain: MEGESQTNMDATLTELSNLLAELEEQPENVFFLRRQIVLMRSLGMTAEVLDAYAKLSSLIMLQEEEWLTYLDNFVNSVVKPLDVTAFMDIVEKYVQAERDYLSLPIILQHVKFIIACFKAGQDPQSSEEALEVPVDEELAAFLDVGTTRGLIKAATDLGNGLLSESQQLWQLWIDWELGLMEGAKGTEKQEAIESVHNVYLQRLAIPHSTIDQTTSSYSSFCSTYCNEEYEQRLVKATEVSQTAKYKWSGERRAGKSREDFELLILYATDLAAQAQVFVEYYKWESSARIKPTAHGKGPNVDITLTQAVFERAVVPYAKLAAMAQSSLDEINLKLQKQSKSKKSKGKGKKKEGEPEATTLAEQKQAMEETIRAYKDAEAGIWAKYASWSEEAIHAMTGTKIRKNAVRAVPHCGGAWADLFQDTEKVTADLQQLDSLFETALSLGLLFIPEGRTTEITELFLARAAYEARLASVNVALGAVHPALATITRGLEAITKVNKSGDASLKLEKFALDWAETIAPEYLDQTLLVLDKPVKCRSSSYQFALLRANVEIRRDDVDRAREIFEKFIQRTDLDWPEAIYEAFIQLEVVHGTPQTLQDTRKKIEREQEKVAKRREKAAAEASAYQEQYTAAAIQGAAAGAVDAVMGDAELKGVDPTQEAVDLAVAASADLSAAPVAVGQSGKDNAEEVHLKRDREHTTVLVTGLPKGCTPERIENFFFECGPVRETTILVDEDAMHDSALVEFKKAEAIPDVLEKDKKKFEGTPVSISMLWRSTLFVTNFPREMDDGGIRNLLEQYGRILETRWPSRKYADSRRFCYVTMESPAAAQEALVLHGYKVPGASTNFGLTVLISDPSAKTKRSDAANSTLFVGGLNNKSTEVDIKGLFNEFGTISHIKLGWDPLKRICKGFAFVEMSTEAEAKAALKLHGTQYKGKYLKVEISDPNHANKKSQERKPDQAAEKRLRSVRLSNLPEDTQEGLLQQALEKIVPVRRLEMFVRSHEALAELESQADVGKLLLRTEPFIFNGNEITFTEQNKRPPPAKEARDDSGNDKDVKSSSAPSGPSTMFAPRAARKALAKPRPTAVAAAKAVAASPGIPAQGQDDFRALVAAKNKQREEKLNIAREGSGTSGEKRKLEDGQEGEESKRTRT
B2: AAA domain-containing protein (protein, UniProt J9VKK1 1-972)
chain: MTEESSSIIADNSTATKSPTTFTSPNGTVLTFQSAGNYLSSWLQTIGHSPDYSMEDVLPEGYIPPPLSKKAAKKAALGDANVYAGPPPGSMRVCTVNLPFYGPIRSTPWANKALAKQSASFEAVKELHKHGEVDDNFQATPLRPKKKGDTKGTKSRCHDTWEIKKAVIRDQLPRPTGGVGHGHYDYQTTPEFWSTCPPFNPRSLHASILQLSPAGEGKYDHPECRLMCMLTSRPLPVFKKSNQVEVRMAVGEQPPLCATMRVINGGKMDTFYSGKLDQALVFTEKLMRAEVQKAFKTDLRKVKWLLLPLRREYVPPTKEQLVAGKSVSLKLDDISWKEVDAVTDGALTLPFTFDDYDSLKREIVDSLATAPSEMSRRSYIIDVRQDLHPLSSHPDVPGKTICDVLKEGNVTLPQLTEPSQPILEVETVNLAKTGSYISTAAMAAEERPRQYLVPEFEHRHCIPASVFRTCTVIPYFIFHLESMLIAEEMSAKEFNSILGPELALQAITAPEGLNVPRWTYERLEILGDTLLKFMTTLHFYLLGGGADSEDDMNKVWQDRHMLISNRTLTANAVKQGLVKYVRNKKFKVKDWTPRDWELDQPPGQFAPKKAMPTSFDGPESRMLGDKVIADIIEAIIGASYMPNKDLDSVIAILHNLMVPLNLFKTWDDVKHVLPPPKAEEPKNPDVPAYISFFKKSSYEVLGYKFKDNKKFEDAFSLAPAQQTRRIRERYKMMGNALLDLYVIELLMDNYPDEGPASLSIMKLSRTTEGLRCALAVELGMPDLIIDGDDHSRSELKRATHFMQKAKAQADEDLNENEQGGVHYWEEVVISRVNGSIIEIVFGAIFEDCNFSLEPTQKIFTERIAPFLAKYCRGPNGFDPHPKAMLTRWMQKKGCQFWNLTAEGPKLNQGVVTCHDKEIARECAFTQHVTIRHVCLAALKRLRDENYIEEICNCPSFKKVIPDDEKIFGKKRA
B3: CENP-V/GFA domain-containing protein (protein, UniProt J9VH97 1-137)
chain: MPVTLTGGCFCTALTYRVSLDSLDDARVTLCHCSSCKKAFGGDFGLTAKIPVSSFRYTQGQATEHKTKNGVKREFCGTCGSYILEYGEAAANDFRYIVVGSLDEPAVLPPKGEFFCKNRLEWMPQIPNTFQKQEIKE
B4: Rho GTPase activator (protein, UniProt J9VRK0 1-1393)
chain: MSSPTYPKPTVPPPGAWPSRPSLDDSTPRRSIDQRQGPFLHLSQPNSSTHHADSSESSRRNSMASGSIHNSPSSLGSSSKNLGRFDEHAPLQTAVELPTRGEPGFVGSARLPWITTSAIDSESGPRSAPVESGRLRSSGAGSAPLRSSSSPDPWMNQTSQRSSPSTSPIDHRPNFATGHGQVSFQGNLVPPYLHGQERRPSPASSLTGGRPLPPRKASDQSTSSQTPSTATFHSDNIGMSDGQPLLQWPQPRTRKDGGGTTCGQCAQTVHGQFVRAMGKVYHLNCFRCKDCNKVVAQKFFPVEDGDGMYPLCERDYFARLDLICAKCDQALRASYITACGAKYHVEHFTCSECDVLFGPNDSYYEHDGRVYCHYHYSTRFAVKCVGCETAILKQFVEMNRNGRNECWHPECYMISKFWNVRLASKTFNTPASSAVASTISLLEMSSITAPGAPVTSASQLIQIPLDSPNPESHITPAELKERQEAMEMKVQQIWHVLSGYEESSAALIGDMLRAVNERNLLDIILLAERFILHVETLFAVIDDIEAQFAMVGAKGIPHAREAKQLCRKLVNLFSNMSQISPAGGPSPSSNELFTLITQLAHYLKILIRIALTGSIKLEREYNNQTAMTNCLARLNLLAMDSGDPNIKKRGDWPDVSPQNGNGMQSQNGHGEGFSVDEGQGGVQGDEEQLKKSMDALTRRPTGYLSSTRDIAYGYRSLAPEVTGETTLRGPQDEDFIPLEGCAQCGAPIEEDCVRLGMFLRWHCACIACNVCGETALQSVRDDMTDEGSTHSHTDTGSNSGIMSRQNSVRNTPAKVDYFWFAPEHFSGMAKPPEKIWCGIHKNLNGSWKGFEGVSRLEQYAFLLHIALRRLYVHFRLHHSLQSVRDHGISGRAESEVKRMKSVTLDRKLSSTARLPQRSMVVESPAGRMADGNGQIISARNAESPTPTPKERQTEIIITTEDASNNATTVNVLRPPFARNNTSVKIIKENSEESPQRGFRRVSAPKEDDAITLGDISLLADKDRRPDNRPLLSNLSPLQSIILRHFALLQLQKTSLGPLIDLDDMLDLLDARKGQWWNKIFKGNAKKDTKKKGLFGVPIEVLVERTGSDSSFGVPNSQVRVPEFIEDIISTMRQMDMAVEGVFRKNGNIRKLQTLVEALDKDSTAVNLSEENVIQLAALLKRFLRELPDPLLTFRLHRLFCAAATLPSSEERSRCLHLLISLLPKYNRDTMEVLFIFLKWVSSFSYREEETGSKMDLANLATVICPSILYAKGSNAVKDDSFTAIAAVQELLENQDEYYRVPSELLFVIQEGIYQIFAKDLDLPPKEIFRHCSKYTQARSAAQPQQQRLGIPHSNSSSQVSQTSVSRSVESATRISQVTITADSSSGNYRPPLP
B5: Catalase (protein, UniProt J9VH55 1-694)
chain: MSQMLNQAANMVTGDAKYRQMAENTIDQDDKTPYTTYFGVKVSDTDNSLRAGARGPTLLEDFHNREKIQHFDHERIPERVVHARGAGAFGEFKLHTPLTDITTAKVLTDTSKVVPAYVRFSAVAGFRGSADTSATTCPCSSLMDAIKFPDVIHAVQPEPHNQIPQAQTAHDNAWDFMSLHKPALHMQQWLTSDRAVPRSYRMMQGFGVHTFRLINEEGKSTFVKYHWIPHLGTHSLVWDEALKVAGQDPDFHRRDLWDAIEVGAYPKWDLGVQLIKEEDEHKFDFDLLDATKLIPEELVPVQKIGTLTLNRNPVDYFSEVEQVAFCTQHIVPGMDFTDDPLLAGRNFSYPDTQVSRLGINWKDIPVNRPICPFMTTMREGQMSMFSKNNRTPYHPNRNENLPLTSPKQGGFKSYPAKVSGIKERVQAPKFNDHSSQATLFWNSMSDVEKKHIIDAYKFELSHCADNLVIQNVINRINEIDHGLATAVHSGFPHLSLPEAKPNHGKRTEYLSQITGKNQTFTAAGRKIGIFLVPGFVYSQVAPLLAAFEAAGCMVKFVGPTLGPVKASDGQSFTTEFTFEGCRSTYFDALIFAGGPDDAFVSKLKIGRLIHAAREAYMHLKAIGAVGNATQWLVETCIPGDFSPTVKTESSVVQENGVVFAPANPTLHSAQFAKQFLETVANHRVWDREVSHIAA
B6: Reverse transcriptase domain-containing protein (protein, UniProt J9VKK4 1-767)
chain: MDDNHFHLQDHEHTPNHDDTAEALIASLKAVINDPNSHNQQPSDIHDHEADPESSQQPQHHEQAQNTLNAFTAEQHSNPVHVGLRKSLAQLTHLTNAHQGLLDELNGAGAIQNLAQNLKALKEGNKRQIDVLKELTGQIKASELGVDLSVPFSEQLDPELSPVVLRSDYDALKAQYDALLVSGSPSSVATGKRLAGARKSRAPKSVATVTTIEPETLRAVEDDKRASHSSTPTGGVEGRKKRSIRLEHLVHKMANRRLGVEYTVSNFESKGSRDLPDPATHPLTAEESPNGVDEFRPHFGADINASTVKPFIDRVIEDVWEAWQSGQGDEDVEADRQKVFDAVKIYWTRLSKRYDEQQHRERGEIHRDELSRRKQNTYRRQQSLLMRRTAHFDWSPLNACRLRALYRTLLTIDFAAQTQDQPDPKRAYTPEEWYAYRRLACGPRSGEAHEVIDQFWLSPAVRTLLLILDEFAQDQQARAKKKGKPKQPNPIFHLPAHLWDRSTLPTLRPKDNDGLPLSGSPGIILFKFHVDEQVQRENPDWAKGLYDNPPIPPEDEALPKLSELLSQPAYAGLRQIVHEAKDRANPKMLTNEQVEQINSGVDLSLLEGLNIPPAGLEGEGEYMTFAALTQLASNSEVNSSRPSGLPEQLIVHDDAPNTPDHKYVHSAFPSSSITAATPLATHISGVGPSPIPLPYTGTDASSAARSGTSMRARKLGKRAASEFPGGAATPVPKRQRVVGALENEDEEDRDAEVEEVLGGDAAFLEEM

Tests used:
[1] = target: T1, Cdc3-mCherry (C. neoformans) (UniProt J9VUF2); assay: affinity purification with mass spectrometry
T1 sequence: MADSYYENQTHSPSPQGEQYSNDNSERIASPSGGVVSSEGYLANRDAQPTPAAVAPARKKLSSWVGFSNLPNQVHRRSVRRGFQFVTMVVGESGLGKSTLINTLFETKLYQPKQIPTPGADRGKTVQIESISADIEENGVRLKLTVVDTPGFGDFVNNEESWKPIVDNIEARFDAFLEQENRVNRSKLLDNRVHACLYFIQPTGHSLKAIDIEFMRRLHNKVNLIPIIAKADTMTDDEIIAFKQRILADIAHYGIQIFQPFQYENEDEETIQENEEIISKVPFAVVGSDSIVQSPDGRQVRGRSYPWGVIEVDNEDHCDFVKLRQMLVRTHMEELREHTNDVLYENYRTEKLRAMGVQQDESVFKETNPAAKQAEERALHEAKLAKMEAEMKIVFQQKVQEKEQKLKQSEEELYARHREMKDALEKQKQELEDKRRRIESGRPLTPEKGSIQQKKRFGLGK

[2] = target: T2, Cdc10-mCherry (C. neoformans) (UniProt J9VMT9); assay: affinity purification with mass spectrometry
T2 sequence: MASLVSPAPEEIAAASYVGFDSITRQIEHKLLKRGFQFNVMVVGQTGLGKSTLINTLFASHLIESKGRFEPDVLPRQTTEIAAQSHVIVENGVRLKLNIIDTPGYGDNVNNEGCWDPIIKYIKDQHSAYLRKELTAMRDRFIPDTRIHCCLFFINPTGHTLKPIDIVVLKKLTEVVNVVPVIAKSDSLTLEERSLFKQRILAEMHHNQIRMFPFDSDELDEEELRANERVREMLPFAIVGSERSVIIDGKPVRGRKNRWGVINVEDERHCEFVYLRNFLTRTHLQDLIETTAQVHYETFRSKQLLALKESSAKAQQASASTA

Binder	binding [1]	binding [2]
B1	binds	binds
B2	binds	binds
B3	binds	binds
B4	binds	binds
B5	binds	binds
B6	binds	binds
